# Source: the supplement of paper PMC8166895
# Structures can show the parent of a compound that is named as a salt. This is one part of the list. Most values lie at the level of the controls, where differences are scatter.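 Differential scanning fluorimetry gave melting temperatures in a one-replicate pilot screen of a library of approved drugs plus clinical or known-target compounds. Hits increasing melting point at least 2 °C were the strongest stabilizers, while negative shifts signify destabilization.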 *1 amine or outer side, *2 acyl side, *3 side chain or, on linkers, in order; H or OH if unused. Where a SMILES comes first, the peptide text is derived from it. Bridges are numbered along the chain shown (N, C = ends). Roman numbers before positions name the chains, in order. [ ]: non-standard residue; d: D form. Hexamethylenediamine = C(CCCN[*:2])CCN[*:1]; Dip = N[C@H](C(=O)O)C(c1ccccc1)c1ccccc1; Chg = N[C@H](C(=O)O)C1CCCCC1; NMeA = CN[C@@H](C)C(=O)O
# Tested on: SARS-CoV-2 main protease (Mpro, nsp5)
# Experiment: thermal shift ΔTm of Mpro relative to plate average Tm; higher = stronger thermal stabilization of Mpro (binding)
# Settings: 10 µM; protein concentration 1 µM
row,Structure (SMILES),thermal shift ΔTm of Mpro
1,COc1ccc(COc2cc3oc(=O)c4cc(C(C)O)ccc4c3cc2OC)cc1 (centres undefined) [Palomid 529 (P529)],-0.137 °C
2,Cc1cc(-c2ccccc2)nnc1C(=O)N1CCN(c2ncccn2)CC1,-0.0889 °C
3,CCS(=O)(=O)N1CCC([C@@H](C)n2c(C)c(C(=O)NCc3c(OC)cc(C)[nH]c3=O)c3ccccc32)CC1,-0.0594 °C
4,Fc1ccc(CNc2ncnc3ccc(F)cc23)cc1 [Spautin-1],0.182 °C
5,O=S(=O)(N=Cc1c(O)ccc2ccccc12)c1cccs1,-0.249 °C
6,"CO[C@H]1C[C@@H]2CC[C@@H](C)[C@@](O)(O2)C(=O)C(=O)N2CCCC[C@H]2C(=O)O[C@H]([C@H](C)C[C@@H]2CC[C@@H](OP(C)(C)=O)[C@H](OC)C2)CC(=O)[C@H](C)/C=C(\C)[C@@H](O)[C@@H](OC)C(=O)[C@H](C)C[C@H](C)/C=C/C=C/C=C/1C [Ridaforolimus (Deforolimus, MK-8669)]",-0.368 °C
7,c1ccc([C@@H]2C[C@H]2NC2CCNCC2)cc1,-0.00344 °C
8,Cc1c(OCC(F)(F)F)ccnc1C[S+]([O-])c1nc2ccccc2[nH]1 (centres undefined) [Lansoprazole],0.491 °C
9,O=C(O)c1ccc(S(=O)(=O)N(Cc2ccc(OC(F)(F)F)cc2)c2ncc(C(F)(F)F)cc2Cl)cc1,-0.115 °C
10,CCN1CCN(c2cc(-c3ccc(F)cc3)c3c(n2)CCCCCC3)CC1 [Blonanserin],-0.276 °C
11,CC=C(C)C(=O)O[C@H]1[C@H](OC(C)=O)[C@@]2(CO)C(CC1(C)C)C1=CCC3[C@@]4(C)CC[C@H](O[C@@H]5O[C@H](C(=O)O)[C@@H](O[C@@H]6O[C@H](CO)[C@@H](O)[C@H](O)[C@H]6O)[C@H](O)[C@H]5O[C@@H]5O[C@H](CO)[C@@H](O)[C@H](O)[C@H]5O)[C@](C)(CO)C4CC[C@@]3(C)[C@]1(C)C[C@H]2O (some centres undefined) [Sapogenins Glycosides],-0.0627 °C
12,CC[C@@H]1C(=O)N(C)c2cnc(Nc3ccc(C(=O)NC4CCN(C)CC4)cc3OC)nc2N1C1CCCC1,0.00871 °C
13,O=C1CCc2c(ccc3ccccc23)O1 [Splitomicin],-0.23 °C
14,O=C(O)Cc1cccnc1 [3-Pyridylacetic acid hydrochloride],0.236 °C
15,S=P(N1CC1)(N1CC1)N1CC1 [Triethylenethiophosphoramide],0.177 °C
16,c1cnc(NCc2ccc(CNc3ncccn3)cc2)nc1,0.221 °C
17,CNC(=O)CN1CCC(Oc2cc3c(Nc4cccc(Cl)c4F)ncnc3cc2OC)CC1 [AZD8931 (Sapitinib)],-0.0649 °C
18,COc1ccc2cc(Br)ccc2c1 [2-Bromo-6-methoxynaphthalene],-0.167 °C
19,CCN1CCCC1CNC(=O)c1cc(S(=O)(=O)CC)c(N)cc1OC (centres undefined) [Amisulpride],0.171 °C
20,Nc1nc(N)nc(-c2cc(Cl)ccc2Cl)n1 [Irsogladine],0.0948 °C
21,O=C(O)CCn1c(O)c(C2=c3cc(Cl)ccc3=NC2=O)sc1=S,0.0874 °C
22,CCCS(=O)(=O)Nc1ccc(F)c(C(=O)c2c[nH]c3ncc(Cl)cc23)c1F,-0.0596 °C
23,O=C(Nc1cccc(Cl)c1)Nc1ncc(CCNc2ncnc3ccsc23)s1 [SNS-314 Mesylate],0.178 °C
24,Nc1n[nH]c2cc(-c3ccc(=O)n(Cc4cccc(Cl)c4)c3)ccc12,0.245 °C
25,Nc1ncnc2c1c(-c1cccc(OCc3ccccc3)c1)cn2C1CC(CN2CCCC2)C1 (centres undefined),0.149 °C

# Another view of some results above.
row	Structure (SMILES)	thermal shift ΔTm of Mpro
4	Fc1ccc(CNc2ncnc3ccc(F)cc23)cc1 [Spautin-1]	0.182 °C
8	Cc1c(OCC(F)(F)F)ccnc1C[S+]([O-])c1nc2ccccc2[nH]1 (centres undefined) [Lansoprazole]	0.491 °C

# Next part.

row,Structure (SMILES),thermal shift ΔTm of Mpro
1,Clc1ccc2c(NCCNc3ccnc4cc(Cl)ccc34)ccnc2c1,0.0093 °C
2,Cc1ccc(NC(=O)Nc2cc(-c3ccccc3-c3nn[nH]n3)ccc2N(CC(C)C)CC(C)C)cc1,-0.635 °C
3,CN(C)c1ccc(C2Nc3ccc4ccccc4c3C3=C2C(=O)CC(C)(C)C3)cc1Br (centres undefined) [Glutaminase C-IN-1],-0.0692 °C
4,CCc1c(C(=O)NCCc2ccc(N3CCCCC3)cc2)[nH]c2ccc(Cl)cc12,0.0884 °C
5,c1ccc(Cc2nc3ccccc3[nH]2)cc1 [Bendazol],0.267 °C
6,Nc1cccc(-c2cc3c(Oc4cccc(O)c4)ncnc3[nH]2)c1,0.044 °C
7,CC(C)[C@H]1CC[C@H](C(=O)N[C@H](Cc2ccccc2)C(=O)O)CC1 [Nateglinide],-0.0887 °C
8,COC(=O)/C(=C1/OC(=O)C(c2ccccc2)=C1O)c1ccccc1 [Vulpinic Acid],0.192 °C
9,COc1c(O)cc2c(c1O)[C@@H]1O[C@H](CO)[C@@H](O)[C@H](O)[C@H]1OC2=O [Bergenin],0.317 °C
10,COc1ccc(CCCOC(Cn2ccnc2)c2ccc(OC)cc2)cc1 (centres undefined),0.0489 °C
11,COc1cc(-c2nc3ccccc3s2)ccc1O,1.26 °C
12,COc1ccc(C(C)=O)c(O)c1 [Paeonol],-0.111 °C
13,COc1ccc(-n2nc(C(N)=O)c3c2C(=O)N(c2ccc(N4CCCCC4=O)cc2)CC3)cc1 [Apixaban],-0.0301 °C
14,CCC(CC)[C@H](NC(C)=O)[C@@H]1[C@H](O)[C@@H](C(=O)O)C[C@H]1NC(=N)N [Peramivir Trihydrate],0.00417 °C
15,CC(C)c1nc(CN(C)C(=O)N[C@H](C(=O)N[C@@H](Cc2ccccc2)C[C@H](O)[C@H](Cc2ccccc2)NC(=O)OCc2cncs2)C(C)C)cs1 [Ritonavir],-0.159 °C
16,CC1C=CC=CCCC=CC=CC=CC=CC(OC2OC(C)C(O)C(N)C2O)CC2OC(O)(CC(O)C(O)CCC(O)CC(O)CC(O)CC(=O)OC(C)C(C)C1O)CC(O)C2C(=O)O (centres undefined) [Nystatin (Fungicidin)],0.0162 °C
17,COc1ccccc1OCCNCC(O)COc1cccc2[nH]c3ccccc3c12 (centres undefined) [Carvedilol phosphate],-0.144 °C
18,COc1ccccc1OCCNCC(O)COc1cccc2[nH]c3ccccc3c12 (centres undefined) [Carvedilol],-0.0999 °C
19,CC1CCc2cc(F)cc3c(=O)c(C(=O)O)cn1c23 (centres undefined) [Flumequine],-0.1 °C
20,COc1cc(N2CCC(N3CCN(C)CC3)CC2)ccc1Nc1ncc(Cl)c(Nc2ccccc2S(=O)(=O)C(C)C)n1,0.175 °C
21,CN[C@@H](C)C(=O)N[C@H](C(=O)N1CCC[C@H]1C(=O)N[C@H](C(=O)NCCCCCCNC(=O)[C@@H](NC(=O)[C@@H]1CCCN1C(=O)[C@@H](NC(=O)[C@H](C)NC)C1CCCCC1)C(c1ccccc1)c1ccccc1)C(c1ccccc1)c1ccccc1)C1CCCCC1 (I: H-[NMeA][Chg]P[Dip] / II: H-[NMeA][Chg]P[Dip]; linker I:C-II:C via Hexamethylenediamine),-0.661 °C
22,C[C@@H](O)[C@H]1C(=O)N2C(C(=O)OCOC(=O)C(C)(C)C)=C(SC3CN(C4=NCCS4)C3)[C@H](C)[C@H]12 [Tebipenem Pivoxil],-0.153 °C
23,CCCCOc1ccc(OCCCN2CCOCC2)cc1 [Pramoxine HCl],-0.125 °C
24,CCOC(=O)C1=C(C)NC(C)=C(C(=O)OC)C1c1cccc([N+](=O)[O-])c1 (centres undefined) [Nitrendipine],-0.132 °C
25,O=c1oc2ccc(O)cc2c2c1NCCC2,0.0523 °C

# Some of the entries so far, bar-delimited:
row | Structure (SMILES) | thermal shift ΔTm of Mpro
4 | CCc1c(C(=O)NCCc2ccc(N3CCCCC3)cc2)[nH]c2ccc(Cl)cc12 | 0.0884 °C
5 | c1ccc(Cc2nc3ccccc3[nH]2)cc1 [Bendazol] | 0.267 °C
6 | Nc1cccc(-c2cc3c(Oc4cccc(O)c4)ncnc3[nH]2)c1 | 0.044 °C

# Further entries follow.

row,Structure (SMILES),thermal shift ΔTm of Mpro
1,CC(C)C[C@H](NC(=O)CNC(=O)c1cc(Cl)ccc1Cl)B1OC(=O)CC(CC(=O)O)(C(=O)O)O1 (some centres undefined),0.37 °C
2,Nc1nc(NCCNc2ncc(-c3ncc[nH]3)c(-c3ccc(Cl)cc3Cl)n2)ccc1[N+](=O)[O-],0.126 °C
3,CN(C(=O)/C=C/c1ccoc1)[C@@H]1CC[C@@]2(O)[C@H]3Cc4ccc(O)c5c4[C@@]2(CCN3CC2CC2)[C@H]1O5 [Nalfurafine hydrochloride],0.186 °C
4,COC1(c2sc3c(N4CCOCC4)nc(-c4cnc(N)nc4)nc3c2C)COC1,-0.0315 °C
5,C[C@]12CC[C@H](O)CC1=CC[C@@H]1[C@@H]2CC[C@]2(C)C(=O)CC[C@@H]12 [Dehydroepiandrosterone (DHEA)],-0.118 °C
6,CCn1cc(C(=O)O)c(=O)c2cc(F)c(N3CCNCC3)cc21 [Norfloxacin],0.0838 °C
7,OC[C@H]1O[C@@H](O[C@H]2[C@H](O)[C@@H](O)C(O)O[C@@H]2CO)[C@H](O)[C@@H](O)[C@H]1O (mixture of isomers) [Lactose],0.21 °C
8,FC(F)(F)c1ccccc1-c1nc(NCc2cccs2)c2ccccc2n1,-0.172 °C
9,CCc1c(-c2ccccc2)c(-c2ccccc2)nn1-c1ccccc1-c1cccc(OCC(=O)O)c1,-0.367 °C
10,O=C(c1ccc(OCCN2CCCCC2)cc1)c1c(-c2ccc(O)cc2)sc2cc(O)ccc12 [Raloxifene HCl],0.00841 °C
11,O=C1c2ccccc2-c2n[nH]c3cccc1c23,0.224 °C
12,CCOC(=O)c1c(C)[nH]c(C=C2C(=O)Nc3ccccc32)c1C [VEGFR2 KiN/Ase Inhibitor I],-0.391 °C
13,CNC(=O)c1ccc(N2C(=S)N(c3cnc(C#N)c(C(F)(F)F)c3)C(=O)C23CCC3)cc1F,-0.0621 °C
14,CNC(=O)c1ccccc1Sc1ccc2c(/C=C/c3ccccn3)n[nH]c2c1 [Axitinib],-0.169 °C
15,Cc1ccc(NC(=O)Nc2cc(C(F)(F)F)ccc2F)cc1Nc1ccc2c(c1)NC(=O)/C2=C\c1ccc[nH]1,1.44 °C
16,CC(CN1c2ccccc2Sc2ccccc21)N(C)C (centres undefined) [Promethazine HCl],-0.104 °C
17,CC(CN1c2ccccc2Sc2ccccc21)N(C)C (centres undefined) [Promethazine],0.149 °C
18,Fc1ccc2[nH]ccc2c1-c1nc(N2CCOCC2)c2sc(CN3CCN(CC4CC4)CC3)cc2n1,-0.301 °C
19,CCOc1cc(N2CCC(O)CC2)ccc1Nc1ncc2c(n1)N(C)c1ccccc1C(=O)N2C,-0.522 °C
20,S=C=Nc1cccc(NC(=S)NCCCCNC(=S)Nc2cccc(N=C=S)c2)c1,0.985 °C
21,c1cncc(-c2cn[nH]n2)c1,0.000327 °C
22,CN(C)[C@@H]1CCc2[nH]c3ccc(NC(=O)c4ccc(F)cc4)cc3c2C1,0.0103 °C
23,NS(=O)(=O)c1cc2c(cc1C(F)(F)F)NC(Cc1ccccc1)NS2(=O)=O (centres undefined) [Bendroflumethiazide],-0.237 °C
24,Cn1ncc2c3[nH]n(-c4ccc(F)cc4)c(=O)c3c(-c3cccc(C(F)(F)F)c3)nc21 [CTLA-4 inhibitor],0.151 °C
